Assay results published in PubChem BioAssay AID220 (DTP/NCI, 2004).
The list is a part of this screen's results and no random one: it is rich in T/C values a quarter to a half above the control, in often repeated tests (any T/C) and in doses without a T/C. Further doses and runs are listed elsewhere. T/C gives the treated animals as a percentage of the vehicle group. Schedule codes are those of the source, taken here to give the interval after Q, in days (D) or hours (H), and the number of doses after X. Some doses have a count of surviving animals in place of a T/C: the source files T/C as zero there, which appears to mark a toxic dose or a test without result, not a measured value. Survivors were counted at the toxicity check, usually on the fifth day, unless a day is given; later deaths do not show. Some doses were run more than once; the results are listed from low to high. Some structures stand for samples that the source files as different forms (salt, stereo form or complex); doses refer to the form tested.

Tested on: CD8F1 mice, subcutaneous mammary adenocarcinoma, T/C%
Assay: NCI In Vivo Anticancer Drug Screen. Data for tumor model Mammary Adenocarcinoma CD8F1 (subcutaneous) in CD8F1
Conditions: higher T/C = larger tumour
In short: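 Mice carrying transplanted tumors received test compound, and survival or tumor size was recorded. Each value is the treated-group measurement divided by the corresponding measurement in vehicle-dosed controls.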

**Q.** Which results are given for CC[C@@]1(O)C[C@H](OC2CC(N(C)C)C(OC3CC(O)C(O[C@@H]4O[C@@H](C)C(=O)C=C4N)C(C)O3)C(C)O2)c2c(cc3c(c2O)C(=O)c2c(O)ccc(O)c2C3=O)[C@H]1C(=O)OC (some centres not stated)?
**A.** T/C (T/C endpoint: median tumor weight (est.), dose: 1.0 micrograms/kg/injection, schedule: Q07DX005 (ip), vehicle: Klucel (hydroxypropylcellulose) (HPC), evaluated on day 30): 148 % of control; T/C (T/C endpoint: median tumor weight (est.), dose: 4.0 micrograms/kg/injection, schedule: Q07DX005 (ip), vehicle: Klucel (hydroxypropylcellulose) (HPC), evaluated on day 30): 142 % of control

**Q.** With C[N+](C)(C)c1ncnc2nc[nH]c12 as the compound, how does the T/C (T/C endpoint: median tumor weight (est.), dose: 50.0 mg/kg/injection, schedule: Q07DX005 (ip), vehicle: saline, evaluated on day 30) read?
**A.** The T/C was 136 % of control.

**Q.** Which T/C (T/C endpoint: median tumor weight change, dose: 0.31 mg/kg/injection, schedule: Q01DX001 (ip), vehicle: DMSO, evaluated on day 31) does the source give for C/C=C/C=C/c1cc2cc3c(c(O)c2c(=O)[nH]1)C1(CC3)C(O)=c2c(=O)c3c(=O)cc(OC)c(=O)c=3c(=O)c2=C1O (configuration not stated) here?
**A.** The T/C was 144 % of control.

**Q.** And the survivor count (T/C endpoint: median tumor weight change, dose: 2.5 mg/kg/injection, schedule: Q01DX001 (ip), vehicle: DMSO)?
**A.** The survivor count was 0 of 10 on day 31 and 6 of 10 on day 32.

**Q.** And the survivor count (T/C endpoint: median tumor weight change, dose: 5.0 mg/kg/injection, schedule: Q01DX001 (ip), vehicle: DMSO)?
**A.** Its survivor count is 0 of 10 on day 31 and 0 of 10 on day 32.

**Q.** For COc1cc(NCc2ccc3nc(N)nc(N)c3c2C)cc(OC)c1OC, which survivor count (T/C endpoint: median tumor weight (est.), dose: 80.0 mg/kg/injection, schedule: Q07DX005 (ip), vehicle: saline) is on record?
**A.** The survivor count was 2 of 10 on day 30.

**Q.** And the survivor count (T/C endpoint: median tumor weight (est.), dose: 93.3 mg/kg/injection, schedule: Q04DX007 (ip), vehicle: water)?
**A.** The survivor count was 2 of 8 on day 30.

**Q.** What about the survivor count (T/C endpoint: median tumor weight (est.), dose: 106.7 mg/kg/injection, schedule: Q04DX007 (ip), vehicle: water) of the same compound?
**A.** The survivor count was 0 of 5 on day 30.

**Q.** What about the survivor count (T/C endpoint: median tumor weight (est.), dose: 120.0 mg/kg/injection, schedule: Q07DX005 (ip), vehicle: saline) of the same compound?
**A.** The survivor count was 0 of 10 on day 30.

**Q.** And the survivor count (T/C endpoint: median tumor weight (est.), dose: 120.0 mg/kg/injection, schedule: Q07DX005 (ip), vehicle: suspension in saline)?
**A.** The survivor count was 0 of 10 on day 30.

**Q.** What about the survivor count (T/C endpoint: median tumor weight (est.), dose: 140.0 mg/kg/injection, schedule: Q04DX007 (ip), vehicle: water) of the same compound?
**A.** The survivor count was 0 of 8 on day 30.

**Q.** And the survivor count (T/C endpoint: median tumor weight (est.), dose: 148.0 mg/kg/injection, schedule: Q07DX005 (ip), vehicle: water)?
**A.** The survivor count was 4 of 10 on day 30.

**Q.** And the survivor count (T/C endpoint: median tumor weight (est.), dose: 157.0 mg/kg/injection, schedule: Q07DX005 (ip), vehicle: water)?
**A.** The survivor count was 0 of 10 on day 30.

**Q.** And the survivor count (T/C endpoint: median tumor weight (est.), dose: 160.0 mg/kg/injection, schedule: Q04DX007 (ip), vehicle: water)?
**A.** Its survivor count is 0 of 8 on day 30.

**Q.** And the survivor count (T/C endpoint: median tumor weight (est.), dose: 180.0 mg/kg/injection, schedule: Q04DX007 (ip), vehicle: water)?
**A.** Its survivor count is 5 of 8 on day 30.

**Q.** What about the survivor count (T/C endpoint: median tumor weight (est.), dose: 180.0 mg/kg/injection, schedule: Q07DX005 (ip), vehicle: saline) of the same compound?
**A.** The survivor count was 0 of 10 on day 30.

**Q.** And the survivor count (T/C endpoint: median tumor weight (est.), dose: 180.0 mg/kg/injection, schedule: Q07DX005 (ip), vehicle: suspension in saline)?
**A.** Its survivor count is 0 of 10 on day 30.

**Q.** What about the survivor count (T/C endpoint: median tumor weight (est.), dose: 180.0 mg/kg/injection, schedule: Q07DX005 (ip), vehicle: water) of the same compound?
**A.** The survivor count was 0 of 10 on day 30, 2 of 10 on day 30, 6 of 10 on day 30.

**Q.** And the survivor count (T/C endpoint: median tumor weight (est.), dose: 210.0 mg/kg/injection, schedule: Q04DX007 (ip), vehicle: water)?
**A.** Its survivor count is 0 of 8 on day 30.

**Q.** And the survivor count (T/C endpoint: median tumor weight (est.), dose: 222.0 mg/kg/injection, schedule: Q07DX005 (ip), vehicle: water)?
**A.** The survivor count was 0 of 10 on day 30.

**Q.** And the survivor count (T/C endpoint: median tumor weight (est.), dose: 236.0 mg/kg/injection, schedule: Q07DX005 (ip), vehicle: water)?
**A.** The survivor count was 0 of 10 on day 30.

**Q.** What about the survivor count (T/C endpoint: median tumor weight (est.), dose: 240.0 mg/kg/injection, schedule: Q04DX007 (ip), vehicle: water) of the same compound?
**A.** The survivor count was 0 of 8 on day 30.

**Q.** What about the survivor count (T/C endpoint: median tumor weight (est.), dose: 240.0 mg/kg/injection, schedule: Q07DX005 (ip), vehicle: sodium bicarbonate) of the same compound?
**A.** The survivor count was 1 of 10 on day 30.

**Q.** And the survivor count (T/C endpoint: median tumor weight (est.), dose: 270.0 mg/kg/injection, schedule: Q07DX005 (ip), vehicle: water)?
**A.** Its survivor count is 5 of 10 on day 30.

**Q.** What about the survivor count (T/C endpoint: median tumor weight (est.), dose: 334.0 mg/kg/injection, schedule: Q07DX005 (ip), vehicle: water) of the same compound?
**A.** Its survivor count is 0 of 10 on day 30.

**Q.** And the survivor count (T/C endpoint: median tumor weight (est.), dose: 354.0 mg/kg/injection, schedule: Q07DX005 (ip), vehicle: water)?
**A.** The survivor count was 0 of 10 on day 30.
